{"sequences": {"note": "Protein sequences, listed by entry. Tags and fused reporters are not part of them. Lines headed by an entry give the natural chain unless they say otherwise; changes in a name come on top. Residues count along the entry.", "UniProt Q9HAV4": "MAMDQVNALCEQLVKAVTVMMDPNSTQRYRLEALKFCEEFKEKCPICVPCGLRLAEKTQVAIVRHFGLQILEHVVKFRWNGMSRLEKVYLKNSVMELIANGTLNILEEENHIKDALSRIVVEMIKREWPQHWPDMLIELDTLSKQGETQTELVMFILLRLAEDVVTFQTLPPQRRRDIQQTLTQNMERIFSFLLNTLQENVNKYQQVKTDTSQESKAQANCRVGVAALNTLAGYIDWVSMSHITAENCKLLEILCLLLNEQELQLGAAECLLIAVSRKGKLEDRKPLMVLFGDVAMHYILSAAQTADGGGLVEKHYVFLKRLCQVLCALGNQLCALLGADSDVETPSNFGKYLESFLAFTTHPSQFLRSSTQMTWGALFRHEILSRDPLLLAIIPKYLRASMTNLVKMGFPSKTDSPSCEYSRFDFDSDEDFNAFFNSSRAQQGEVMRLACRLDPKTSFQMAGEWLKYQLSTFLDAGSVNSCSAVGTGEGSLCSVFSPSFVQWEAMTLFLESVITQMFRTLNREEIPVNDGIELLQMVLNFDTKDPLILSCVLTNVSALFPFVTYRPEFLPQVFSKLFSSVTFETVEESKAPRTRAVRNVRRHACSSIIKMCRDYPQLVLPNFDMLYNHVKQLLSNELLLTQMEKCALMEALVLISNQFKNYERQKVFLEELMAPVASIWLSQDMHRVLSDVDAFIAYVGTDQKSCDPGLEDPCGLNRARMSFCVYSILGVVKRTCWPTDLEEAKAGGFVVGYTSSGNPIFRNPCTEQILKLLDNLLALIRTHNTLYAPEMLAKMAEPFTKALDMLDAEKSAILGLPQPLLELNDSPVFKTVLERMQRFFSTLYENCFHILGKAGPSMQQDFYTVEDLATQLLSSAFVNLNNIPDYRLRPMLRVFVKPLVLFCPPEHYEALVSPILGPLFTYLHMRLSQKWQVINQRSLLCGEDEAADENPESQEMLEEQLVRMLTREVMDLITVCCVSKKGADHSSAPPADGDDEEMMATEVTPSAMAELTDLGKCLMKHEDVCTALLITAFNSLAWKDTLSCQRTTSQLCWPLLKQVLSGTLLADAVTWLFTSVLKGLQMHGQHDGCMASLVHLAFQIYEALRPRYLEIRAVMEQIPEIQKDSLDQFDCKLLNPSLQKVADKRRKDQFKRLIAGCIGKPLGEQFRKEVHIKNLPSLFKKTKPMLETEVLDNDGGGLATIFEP", "UniProt Q96JC1, 218-238": "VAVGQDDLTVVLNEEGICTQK", "UniProt Q8IZH2, 392-413": "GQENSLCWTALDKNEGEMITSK", "UniProt Q8IWR0": "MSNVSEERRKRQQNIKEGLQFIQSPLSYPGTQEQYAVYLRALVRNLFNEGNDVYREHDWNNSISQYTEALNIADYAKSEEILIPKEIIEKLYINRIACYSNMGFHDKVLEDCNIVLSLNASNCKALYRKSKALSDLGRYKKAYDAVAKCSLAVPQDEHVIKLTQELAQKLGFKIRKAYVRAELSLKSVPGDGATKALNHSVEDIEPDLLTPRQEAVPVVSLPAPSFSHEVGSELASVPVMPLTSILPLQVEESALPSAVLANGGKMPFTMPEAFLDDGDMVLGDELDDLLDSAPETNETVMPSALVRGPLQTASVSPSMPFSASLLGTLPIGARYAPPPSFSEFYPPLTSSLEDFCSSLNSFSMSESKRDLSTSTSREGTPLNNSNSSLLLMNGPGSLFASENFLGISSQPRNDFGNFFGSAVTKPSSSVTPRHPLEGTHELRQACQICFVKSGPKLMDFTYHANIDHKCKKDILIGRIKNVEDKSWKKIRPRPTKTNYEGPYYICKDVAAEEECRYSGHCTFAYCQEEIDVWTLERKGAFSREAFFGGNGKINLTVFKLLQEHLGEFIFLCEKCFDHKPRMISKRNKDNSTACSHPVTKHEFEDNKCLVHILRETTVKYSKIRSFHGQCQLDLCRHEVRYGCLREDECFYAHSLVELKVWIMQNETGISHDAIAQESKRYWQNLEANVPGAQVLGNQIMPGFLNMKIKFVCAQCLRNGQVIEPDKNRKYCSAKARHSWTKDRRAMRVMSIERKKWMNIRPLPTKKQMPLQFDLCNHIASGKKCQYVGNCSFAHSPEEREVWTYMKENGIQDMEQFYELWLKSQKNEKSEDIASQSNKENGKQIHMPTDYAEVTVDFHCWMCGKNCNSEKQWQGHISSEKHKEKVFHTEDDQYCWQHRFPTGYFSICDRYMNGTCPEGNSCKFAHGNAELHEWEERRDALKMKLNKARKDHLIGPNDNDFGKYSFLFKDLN", "UniProt Q9BZH6": "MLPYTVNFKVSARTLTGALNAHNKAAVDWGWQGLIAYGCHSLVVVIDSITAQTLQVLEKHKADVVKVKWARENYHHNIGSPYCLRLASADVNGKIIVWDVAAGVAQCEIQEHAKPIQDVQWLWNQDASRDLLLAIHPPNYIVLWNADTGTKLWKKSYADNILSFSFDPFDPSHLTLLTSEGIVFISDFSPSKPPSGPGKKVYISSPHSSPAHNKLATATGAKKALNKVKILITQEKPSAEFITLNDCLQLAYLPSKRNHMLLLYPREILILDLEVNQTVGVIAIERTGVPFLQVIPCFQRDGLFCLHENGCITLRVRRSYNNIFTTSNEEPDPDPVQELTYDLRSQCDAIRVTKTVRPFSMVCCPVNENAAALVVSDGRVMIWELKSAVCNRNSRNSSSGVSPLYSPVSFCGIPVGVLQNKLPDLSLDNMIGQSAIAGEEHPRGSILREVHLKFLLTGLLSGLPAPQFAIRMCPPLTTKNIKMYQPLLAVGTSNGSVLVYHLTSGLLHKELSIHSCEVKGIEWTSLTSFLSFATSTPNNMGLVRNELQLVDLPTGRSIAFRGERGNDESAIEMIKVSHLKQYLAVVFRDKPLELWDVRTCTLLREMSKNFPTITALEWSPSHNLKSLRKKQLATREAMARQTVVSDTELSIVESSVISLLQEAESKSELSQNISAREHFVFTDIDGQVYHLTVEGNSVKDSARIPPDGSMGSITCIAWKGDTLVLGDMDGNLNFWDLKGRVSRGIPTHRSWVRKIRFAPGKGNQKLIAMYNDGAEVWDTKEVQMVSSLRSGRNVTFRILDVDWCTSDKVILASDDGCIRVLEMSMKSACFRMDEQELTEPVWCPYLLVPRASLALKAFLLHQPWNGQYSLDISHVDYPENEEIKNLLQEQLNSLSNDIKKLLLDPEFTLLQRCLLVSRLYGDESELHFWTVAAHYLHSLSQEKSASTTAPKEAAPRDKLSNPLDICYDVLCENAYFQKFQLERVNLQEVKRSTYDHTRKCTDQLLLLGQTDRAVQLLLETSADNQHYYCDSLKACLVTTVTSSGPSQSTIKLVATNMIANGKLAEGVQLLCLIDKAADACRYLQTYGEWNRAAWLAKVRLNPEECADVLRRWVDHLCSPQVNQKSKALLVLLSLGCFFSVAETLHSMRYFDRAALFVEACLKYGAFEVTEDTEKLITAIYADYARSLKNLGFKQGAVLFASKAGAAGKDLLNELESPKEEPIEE", "UniProt O43379": "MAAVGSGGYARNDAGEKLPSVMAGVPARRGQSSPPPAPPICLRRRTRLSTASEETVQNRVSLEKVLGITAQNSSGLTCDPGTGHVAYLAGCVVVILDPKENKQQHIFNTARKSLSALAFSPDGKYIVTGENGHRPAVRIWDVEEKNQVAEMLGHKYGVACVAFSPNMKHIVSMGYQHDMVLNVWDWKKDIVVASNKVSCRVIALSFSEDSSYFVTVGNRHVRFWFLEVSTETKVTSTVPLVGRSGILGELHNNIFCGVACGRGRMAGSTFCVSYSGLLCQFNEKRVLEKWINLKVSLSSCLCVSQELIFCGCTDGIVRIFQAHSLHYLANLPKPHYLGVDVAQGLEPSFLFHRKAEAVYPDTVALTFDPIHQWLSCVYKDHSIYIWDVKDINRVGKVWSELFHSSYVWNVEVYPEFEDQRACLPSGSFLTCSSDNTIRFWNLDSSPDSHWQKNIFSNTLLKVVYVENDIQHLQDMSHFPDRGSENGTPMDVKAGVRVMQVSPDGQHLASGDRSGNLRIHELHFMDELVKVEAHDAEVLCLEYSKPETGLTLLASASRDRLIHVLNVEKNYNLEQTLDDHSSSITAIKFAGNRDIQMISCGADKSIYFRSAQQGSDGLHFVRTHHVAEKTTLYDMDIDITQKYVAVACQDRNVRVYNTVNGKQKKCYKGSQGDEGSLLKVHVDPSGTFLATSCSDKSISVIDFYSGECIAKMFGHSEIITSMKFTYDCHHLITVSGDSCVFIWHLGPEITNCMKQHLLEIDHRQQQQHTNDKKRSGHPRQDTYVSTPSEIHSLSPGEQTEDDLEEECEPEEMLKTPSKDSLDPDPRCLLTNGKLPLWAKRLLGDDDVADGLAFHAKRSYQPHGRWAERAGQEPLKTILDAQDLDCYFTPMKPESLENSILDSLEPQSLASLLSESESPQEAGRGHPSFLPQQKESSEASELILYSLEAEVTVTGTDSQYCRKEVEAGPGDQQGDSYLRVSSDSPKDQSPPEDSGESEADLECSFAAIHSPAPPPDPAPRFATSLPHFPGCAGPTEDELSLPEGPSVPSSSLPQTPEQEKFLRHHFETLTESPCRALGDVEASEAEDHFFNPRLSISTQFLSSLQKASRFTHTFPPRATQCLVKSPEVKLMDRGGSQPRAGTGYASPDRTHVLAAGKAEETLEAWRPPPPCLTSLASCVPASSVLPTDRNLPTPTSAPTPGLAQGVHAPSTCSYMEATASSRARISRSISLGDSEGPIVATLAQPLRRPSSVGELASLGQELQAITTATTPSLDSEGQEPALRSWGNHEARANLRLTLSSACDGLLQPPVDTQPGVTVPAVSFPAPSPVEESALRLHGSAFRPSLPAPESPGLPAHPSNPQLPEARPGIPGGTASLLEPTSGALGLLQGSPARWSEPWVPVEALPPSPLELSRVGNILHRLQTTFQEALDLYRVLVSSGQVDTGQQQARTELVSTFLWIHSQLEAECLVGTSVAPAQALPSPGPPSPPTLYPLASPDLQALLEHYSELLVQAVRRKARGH", "UniProt P30291": "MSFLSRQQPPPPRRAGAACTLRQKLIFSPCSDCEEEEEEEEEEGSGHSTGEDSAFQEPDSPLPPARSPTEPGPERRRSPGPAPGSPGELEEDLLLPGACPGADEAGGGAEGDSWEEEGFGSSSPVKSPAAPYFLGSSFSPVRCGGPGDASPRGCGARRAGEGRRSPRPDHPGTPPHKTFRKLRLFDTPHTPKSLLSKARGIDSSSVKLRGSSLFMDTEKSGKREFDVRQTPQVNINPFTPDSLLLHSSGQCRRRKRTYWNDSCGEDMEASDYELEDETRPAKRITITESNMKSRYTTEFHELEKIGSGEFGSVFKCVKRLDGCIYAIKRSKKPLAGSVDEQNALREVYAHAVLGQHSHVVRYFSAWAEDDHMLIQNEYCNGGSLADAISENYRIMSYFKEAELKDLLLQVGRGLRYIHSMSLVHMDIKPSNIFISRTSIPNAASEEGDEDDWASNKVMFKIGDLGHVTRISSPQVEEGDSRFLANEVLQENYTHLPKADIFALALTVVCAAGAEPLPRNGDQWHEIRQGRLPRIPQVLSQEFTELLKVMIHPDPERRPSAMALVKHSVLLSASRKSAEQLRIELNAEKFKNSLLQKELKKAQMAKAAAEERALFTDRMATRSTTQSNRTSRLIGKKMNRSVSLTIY"}, "source": "the supplement of paper PMC11732987", "about": "“Enantioselective OTUD7B fragment discovery through chemoproteomics screening and high-throughput optimisation” (Communications Chemistry, 2025)", "note": "The other results are listed elsewhere or left out. The data scatter; read single values as rough.", "data": [{"compound": "ClCC(=O)N[C@H]1CCCc2ccccc12", "assay": "log2 mean competition ratio of IA-DTB cysteine labelling (DMSO/compound) (log2 ratio); higher = stronger cysteine engagement by compound", "conditions": "50 µM; treatment time: 4 h; cell line lysate: HEK293T", "experimental": "(§1)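 IA-DTB competitive cysteine chemoproteomics in HEK293T RIPA lysate. Lysates were treated with compound 29 or 30 at 50 or 200 µM for 4 h, then IA-DTB (500 µM, 1 h), trypsin-digested, NeutrAvidin-enriched and analysed by diaPASEF. Competition ratio = intensity DMSO / intensity compound (n=4 treated, n=64 DMSO); binding: mean log2 CR ≥ 1 and p ≤ 0.05 plus QC filters. Target is the cysteine site.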", "values": [{"target": "WDCP C302 (UniProt Q9H6R7)", "log2 mean competition ratio": -0.0909}, {"target": "YEATS2 C1173 (UniProt Q9ULM3)", "log2 mean competition ratio": -0.0405}, {"target": "VPS8 C974 (UniProt Q8N3P4)", "log2 mean competition ratio": 0.184}, {"target": "WDR12 C97 (UniProt Q9GZL7)", "log2 mean competition ratio": -0.174}, {"target": "XPO5 C1044 (UniProt Q9HAV4)", "log2 mean competition ratio": 0.261}, {"target": "WDCP C472 (UniProt Q9H6R7)", "log2 mean competition ratio": 0.21}, {"target": "WDTC1 C236 (UniProt Q8N5D0)", "log2 mean competition ratio": 0.212}, {"target": "XXYLT1 C10 (UniProt Q8NBI6)", "log2 mean competition ratio": 0.315}, {"target": "WDR7 C326 (UniProt Q9Y4E6)", "log2 mean competition ratio": -0.404}, {"target": "WASHC4 C344 (UniProt Q2M389)", "log2 mean competition ratio": -0.324}, {"target": "ZADH2 C218 (UniProt Q8N4Q0)", "log2 mean competition ratio": -0.18}, {"target": "ZBTB10 C394 (UniProt Q96DT7)", "log2 mean competition ratio": 0.357}, {"target": "WWP2 C186 (UniProt O00308)", "log2 mean competition ratio": 0.266}, {"target": "WDCP C574 (UniProt Q9H6R7)", "log2 mean competition ratio": -0.107}, {"target": "WTAP C90 (UniProt Q15007)", "log2 mean competition ratio": -0.00433}, {"target": "VPS39 C235 (UniProt Q96JC1)", "log2 mean competition ratio": -0.303}, {"target": "XRN1 C398 (UniProt Q8IZH2)", "log2 mean competition ratio": 0.0715}, {"target": "XRCC3 C310 (UniProt O43542)", "log2 mean competition ratio": 0.318}, {"target": "ZC3H7A C594 (UniProt Q8IWR0)", "log2 mean competition ratio": -0.362}, {"target": "VPS35L C925 (UniProt Q7Z3J2)", "log2 mean competition ratio": -0.132}, {"target": "WNK3 C1406 (UniProt Q9BYP7)", "log2 mean competition ratio": 0.253}, {"target": "ZC3H11A C636 (UniProt O75152)", "log2 mean competition ratio": 0.468}, {"target": "ZBTB11 C39 (UniProt O95625)", "log2 mean competition ratio": 0.251}, {"target": "VRK2 C373 (UniProt Q86Y07)", "log2 mean competition ratio": 0.0325}, {"target": "XPO1 C723 (UniProt O14980)", "log2 mean competition ratio": 0.26}, {"target": "WDHD1 C180 (UniProt O75717)", "log2 mean competition ratio": 0.374}, {"target": "WDR11 C1000 (UniProt Q9BZH6)", "log2 mean competition ratio": -0.145}, {"target": "WDR11 C1071 (UniProt Q9BZH6)", "log2 mean competition ratio": -0.518}, {"target": "VPS35L C588 (UniProt Q7Z3J2)", "log2 mean competition ratio": -0.0998}, {"target": "ZBTB5 C312 (UniProt O15062)", "log2 mean competition ratio": -0.255}, {"target": "XPO5 C736 (UniProt Q9HAV4)", "log2 mean competition ratio": 0.371}, {"target": "ZC3H7A C575 (UniProt Q8IWR0)", "log2 mean competition ratio": 0.646}, {"target": "WAPL C929 (UniProt Q7Z5K2)", "log2 mean competition ratio": 0.0161}, {"target": "ZBTB21 C152 (UniProt Q9ULJ3)", "log2 mean competition ratio": 0.447}, {"target": "WDR62 C707 (UniProt O43379)", "log2 mean competition ratio": -0.354}, {"target": "WDR62 C1072 (UniProt O43379)", "log2 mean competition ratio": 0.042}, {"target": "WEE1 C19 (UniProt P30291)", "log2 mean competition ratio": 0.183}, {"target": "WDR20 C514 (UniProt Q8TBZ3)", "log2 mean competition ratio": 0.269}]}, {"compound": "ClCC(=O)N[C@H]1CCCc2ccccc12", "assay": "log2 mean competition ratio of IA-DTB cysteine labelling (DMSO/compound) (log2 ratio); higher = stronger cysteine engagement by compound", "conditions": "200 µM; treatment time: 4 h; cell line lysate: HEK293T", "experimental": "as §1", "values": [{"target": "WDCP C302 (UniProt Q9H6R7)", "log2 mean competition ratio": 0.114}, {"target": "YEATS2 C1173 (UniProt Q9ULM3)", "log2 mean competition ratio": 0.27}, {"target": "VPS8 C974 (UniProt Q8N3P4)", "log2 mean competition ratio": 0.858}, {"target": "WDR12 C97 (UniProt Q9GZL7)", "log2 mean competition ratio": -0.222}, {"target": "XPO5 C1044 (UniProt Q9HAV4)", "log2 mean competition ratio": 0.193}, {"target": "WDCP C472 (UniProt Q9H6R7)", "log2 mean competition ratio": 0.367}, {"target": "WDTC1 C236 (UniProt Q8N5D0)", "log2 mean competition ratio": 0.000269}, {"target": "XXYLT1 C10 (UniProt Q8NBI6)", "log2 mean competition ratio": 0.432}, {"target": "WDR7 C326 (UniProt Q9Y4E6)", "log2 mean competition ratio": -0.0898}, {"target": "WASHC4 C344 (UniProt Q2M389)", "log2 mean competition ratio": -0.0517}, {"target": "ZADH2 C218 (UniProt Q8N4Q0)", "log2 mean competition ratio": 0.12}, {"target": "ZBTB10 C394 (UniProt Q96DT7)", "log2 mean competition ratio": -0.127}, {"target": "WWP2 C186 (UniProt O00308)", "log2 mean competition ratio": 0.281}, {"target": "WDCP C574 (UniProt Q9H6R7)", "log2 mean competition ratio": -0.0917}, {"target": "WTAP C90 (UniProt Q15007)", "log2 mean competition ratio": -0.218}, {"target": "VPS39 C235 (UniProt Q96JC1)", "log2 mean competition ratio": 0.136}, {"target": "XRN1 C398 (UniProt Q8IZH2)", "log2 mean competition ratio": -0.331}, {"target": "XRCC3 C310 (UniProt O43542)", "log2 mean competition ratio": 0.205}, {"target": "ZC3H7A C594 (UniProt Q8IWR0)", "log2 mean competition ratio": -0.151}, {"target": "VPS35L C925 (UniProt Q7Z3J2)", "log2 mean competition ratio": 0.026}, {"target": "WNK3 C1406 (UniProt Q9BYP7)", "log2 mean competition ratio": 0.0959}, {"target": "ZC3H11A C636 (UniProt O75152)", "log2 mean competition ratio": -0.0341}, {"target": "ZBTB11 C39 (UniProt O95625)", "log2 mean competition ratio": 0.0215}, {"target": "VRK2 C373 (UniProt Q86Y07)", "log2 mean competition ratio": 0.00194}, {"target": "XPO1 C723 (UniProt O14980)", "log2 mean competition ratio": -0.427}, {"target": "WDHD1 C180 (UniProt O75717)", "log2 mean competition ratio": 0.109}, {"target": "WDR11 C1000 (UniProt Q9BZH6)", "log2 mean competition ratio": -0.152}, {"target": "WDR11 C1071 (UniProt Q9BZH6)", "log2 mean competition ratio": -0.534}, {"target": "VPS35L C588 (UniProt Q7Z3J2)", "log2 mean competition ratio": -0.19}, {"target": "ZBTB5 C312 (UniProt O15062)", "log2 mean competition ratio": -0.0311}, {"target": "XPO5 C736 (UniProt Q9HAV4)", "log2 mean competition ratio": -0.0526}, {"target": "ZC3H7A C575 (UniProt Q8IWR0)", "log2 mean competition ratio": -0.493}, {"target": "WAPL C929 (UniProt Q7Z5K2)", "log2 mean competition ratio": 0.0663}, {"target": "ZBTB21 C152 (UniProt Q9ULJ3)", "log2 mean competition ratio": -0.0309}, {"target": "WDR62 C707 (UniProt O43379)", "log2 mean competition ratio": -0.16}, {"target": "WDR62 C1072 (UniProt O43379)", "log2 mean competition ratio": 0.322}, {"target": "WEE1 C19 (UniProt P30291)", "log2 mean competition ratio": 0.0558}, {"target": "WDR20 C514 (UniProt Q8TBZ3)", "log2 mean competition ratio": -0.109}]}]}
